# Patent US20200390764A1, “PHARMACEUTICAL FORMULATIONS, PROCESSES FOR PREPARATION, AND METHODS OF USE” (Sunesis Pharmaceuticals, Inc., priority 2017, published 2020)
# For some assays here: At least one read-out could not be matched to a standard name with certainty. Some entries share one result that the patent states for a list of compounds.
# What was measured:
# MV4-11 xenografts = test: Efficacy by 21-day dosing in MV4-11 xenografts; type: in vivo, mice; settings: highest dose
# [1] = Permeability / BCS classification
SMILES,TGI (MV4-11 xenografts),"partial regression, % of animals (MV4-11 xenografts)",permeability [1]
"CNc1n[nH]c2ncc(-c3ccc(CNc4ncc(C#N)nc4C(=O)N[C@@H](C)c4ccc(F)c(F)c4)cc3)cc12 [Compound 2, 6-Cyano-3-[4-(3-methylamino-1H-pyrazolo[3,4-b]pyridin-5-yl)-benzylamino]-pyrazine-2-carboxylic acid [1-(3,4-difluoro-phenyl)-ethyl]-amide]",96-97%,70-100%,
"C[C@H](NC(=O)c1nc(C#N)cnc1NCc1ccc(-c2cnc3[nH]nc(N)c3n2)cc1)c1ccc(F)c(F)c1 (stereo in doubt) [Compound 1, 3-[4-(3-Amino-1H-pyrazolo[3,4-b]pyrazin-5-yl)-benzylamino]-6-cyano-pyrazine-2-carboxylic acid [1-(3,4-difluoro-phenyl)-ethyl]-amide]",96-97%,70-100%,low permeability
